Where a name gives a salt, the structure may show the parent alone. ± gives the standard deviation of the averaged measurements. The list shows a part of the results. Values are raw readings; no control value is given beside them.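 HeLa cells imaged for ribosome-assembly readouts (ENP1 staining with or without export block, or inducible tagged ribosomal protein reporters); machine learning classified each cell's signal location against solvent (DMSO) controls. Hits exceeded the DMSO false-positive mean by five standard deviations, then were visually confirmed; three biological replicates.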
What was measured:
[1] = system: HeLa K (ENP1 immunofluorescence, +LMB); experiment: fraction of cells with nucleolar or nucleolar/nucleoplasmic ENP1 signal (MainHitrate); higher = more cells with nucleolar/nuclear readout signal (for ENP1 -LMB: less RNAPI inhibition; for +LMB ENP1 and RP reporters: stronger nuclear/nucleolar retention, i.e. ribosome biogenesis defect); conditions: concentration: 1 µM; treatment time: 6 h; ENP1 +LMB; leptomycin B: 20 nM, last 1.5 h
[2] = system: HeLa K (ENP1 immunofluorescence, no LMB); experiment: as above; conditions: concentration: 1 µM; treatment time: 6 h; ENP1 -LMB; leptomycin B: none
HeLa RPS2-YFP reporter = experiment: fraction of reporter-positive cells with nuclear (nucleolar or nucleolar/nucleoplasmic) RPS2-YFP (MainHitrate); higher = more cells with nucleolar/nuclear readout signal (for ENP1 -LMB: less RNAPI inhibition; for +LMB ENP1 and RP reporters: stronger nuclear/nucleolar retention, i.e. ribosome biogenesis defect); conditions: concentration: 1 µM; treatment time: 6 h
HeLa RPL29-GFP reporter = experiment: fraction of reporter-positive cells with nuclear (nucleolar or nucleolar/nucleoplasmic) RPL29-GFP (MainHitrate); higher = more cells with nucleolar/nuclear readout signal (for ENP1 -LMB: less RNAPI inhibition; for +LMB ENP1 and RP reporters: stronger nuclear/nucleolar retention, i.e. ribosome biogenesis defect); conditions: concentration: 1 µM; treatment time: 6 h

| Compound | fraction [1] | fraction [2] | fraction of reporter-positive cells with nuclear (HeLa RPS2-YFP reporter) | fraction of reporter-positive cells with nuclear (HeLa RPL29-GFP reporter) |
| --- | --- | --- | --- | --- |
| NS(=O)(=O)c1cc(Cl)c(Cl)c(S(N)(=O)=O)c1 [Dichlorphenamide (Diclofenamide)] | 0.0886 ± 0.12 | 0.991 ± 0.015 | 0.106 ± 0.058 | 0.251 ± 0.076 |
| Nc1c2c(nc3ccccc13)CCCC2 [Tacrine HCl] | 0.0977 ± 0.1 | 0.914 ± 0.15 | 0.111 ± 0.082 | 0.303 ± 0.24 |
| CCOC(=O)C1=C(C)NC(C)=C(C(=O)OC)C1c1cccc([N+](=O)[O-])c1 (centres undefined) [Nitrendipine] | 0.106 ± 0.11 | 0.987 ± 0.023 | 0.152 ± 0.037 | 0.269 ± 0.1 |
| C[C@H](CCC(=O)O)[C@H]1CC[C@H]2[C@@H]3CC[C@@H]4C[C@H](O)CC[C@]4(C)[C@H]3CC[C@]12C [Lithocholic acid] | 0.0699 ± 0.094 | 0.986 ± 0.024 | 0.133 ± 0.11 | 0.216 ± 0.094 |
| Cc1ccccc1C(=O)Nc1ccc(C(=O)N2CCCC(O)c3cc(Cl)ccc32)c(C)c1 (centres undefined) | 0.0399 ± 0.037 | 0.989 ± 0.018 | 0.108 ± 0.088 | 0.21 ± 0.077 |
| CN1CCN(c2cc3c(cc2F)c(=O)c(C(=O)O)cn3-c2ccc(F)cc2)CC1 [Difloxacin HCl] | 0.196 ± 0.27 | 0.99983 ± 0.00029 | 0.182 ± 0.18 | 0.294 ± 0.27 |
| Cc1ncc(CO)c(CO)c1O [Pyridoxine hydrochloride] | 0.0459 ± 0.061 | 0.989 ± 0.018 | 0.0673 ± 0.052 | 0.219 ± 0.02 |
| CC(=O)O[C@]1(C(C)=O)CC[C@H]2[C@@H]3C[C@H](C)C4=CC(=O)CC[C@]4(C)[C@H]3CC[C@@]21C [Medroxyprogesterone acetate] | 0.131 ± 0.19 | 0.9956 ± 0.0076 | 0.179 ± 0.13 | 0.305 ± 0.085 |
| NC(=O)c1ncn([C@@H]2O[C@H](CO)[C@@H](O)[C@H]2O)c1O [Mizoribine (Bredinin)] | 0.12 ± 0.14 | 0.9985 ± 0.0026 | 0.108 ± 0.05 | 0.212 ± 0.067 |
| COC(=O)[C@H]1[C@H]2C[C@@H]3c4[nH]c5cc(OC)ccc5c4CCN3C[C@H]2C[C@@H](OC(=O)c2cc(OC)c(OC)c(OC)c2)[C@@H]1OC [Reserpine] | 0.0701 ± 0.065 | 0.9988 ± 0.0021 | 0.121 ± 0.094 | 0.194 ± 0.019 |
| COC(=O)C1=C(C)NC(C)=C(C(=O)OCCN2CCN(C(c3ccccc3)c3ccccc3)CC2)C1c1cccc([N+](=O)[O-])c1 (centres undefined) [Manidipine (Manyper)] | 0.139 ± 0.2 | 0.99 ± 0.017 | 0.116 ± 0.11 | 0.244 ± 0.076 |
| CC(=O)[C@H]1CC[C@H]2[C@@H]3CC=C4C[C@@H](O)CC[C@]4(C)[C@H]3CC[C@]12C [Pregnenolone] | 0.153 ± 0.23 | 0.993 ± 0.012 | 0.122 ± 0.072 | 0.232 ± 0.091 |
| CNCCCC12CCC(c3ccccc31)c1ccccc12 [Maprotiline hydrochloride] | 0.113 ± 0.15 | 0.9953 ± 0.0081 | 0.12 ± 0.06 | 0.223 ± 0.089 |
| C[N+](C)(C)CCCCCC[N+](C)(C)C [Hexamethonium bromide] | 0.0713 ± 0.085 | 0.992 ± 0.013 | 0.118 ± 0.086 | 0.278 ± 0.073 |
| Cc1oncc1C(=O)Nc1ccc(C(F)(F)F)cc1 [Leflunomide] | 0.0906 ± 0.095 | 0.9988 ± 0.002 | 0.13 ± 0.092 | 0.212 ± 0.091 |
| CN1[C@@H]2CC[C@H]1C[C@@H](OC(=O)c1c[nH]c3ccccc13)C2 [Tropisetron] | 0.134 ± 0.2 | 0.988 ± 0.02 | 0.133 ± 0.041 | 0.373 ± 0.28 |
| CC(C)NC[C@H](O)COc1ccc(CCOCC2CC2)cc1 [Levobetaxolol HCl] | 0.0422 ± 0.056 | 0.985 ± 0.026 | 0.129 ± 0.12 | 0.216 ± 0.051 |
| COC(=O)C1=C(C)NC(C)=C(C(=O)OC2CCCN(Cc3ccccc3)C2)C1c1cccc([N+](=O)[O-])c1 (centres undefined) [Benidipine hydrochloride] | 0.117 ± 0.14 | 0.988 ± 0.021 | 0.131 ± 0.067 | 0.24 ± 0.12 |
| CCCCCCCCCCCCCCCC(=O)O[C@@H]1[C@@H](O)[C@@H](O)[C@@H]([C@H](NC(=O)[C@@H]2C[C@@H](CCC)CN2C)[C@H](C)Cl)O[C@@H]1SC [Clindamycin palmitate HCl] | 0.0568 ± 0.069 | 0.985 ± 0.027 | 0.0995 ± 0.084 | 0.201 ± 0.05 |
| Nc1nc(=O)n([C@@H]2CS[C@H](CO)O2)cc1F [Emtricitabine (Emtriva)] | 0.0701 ± 0.031 | 0.9973 ± 0.0047 | 0.101 ± 0.076 | 0.218 ± 0.098 |
| OC(Cn1cncn1)(Cn1cncn1)c1ccc(F)cc1F [Fluconazole] | 0.0477 ± 0.037 | 0.9991 ± 0.0016 | 0.0763 ± 0.058 | 0.21 ± 0.061 |
| C[C@H]1O[C@H](O[C@H]2[C@H](O)[C@@H](O)[C@@H](O[C@H]3[C@H](O)[C@@H](O)C(O)O[C@@H]3CO)O[C@@H]2CO)[C@H](O)[C@@H](O)[C@@H]1N[C@H]1C=C(CO)[C@@H](O)[C@H](O)[C@H]1O (some centres undefined) [Acarbose] | 0.0959 ± 0.13 | 0.9989 ± 0.002 | 0.109 ± 0.065 | 0.195 ± 0.054 |
| COc1cc(C(C)=O)ccc1OCCCN1CCC(c2noc3cc(F)ccc23)CC1 [Iloperidone (Fanapt)] | 0.0705 ± 0.067 | 0.9971 ± 0.0051 | 0.119 ± 0.09 | 0.205 ± 0.041 |
| NC1CCN(c2c(F)cc3c(=O)c(C(=O)O)cn(C4CC4)c3c2Cl)C1 (centres undefined) [Clinafoxacin HCl] | 0.108 ± 0.13 | 0.9949 ± 0.0088 | 0.137 ± 0.15 | 0.307 ± 0.23 |
| C[C@@H](O)[C@H]1C(=O)N2C(C(=O)O)=C(S[C@@H]3CN[C@H](CNS(N)(=O)=O)C3)[C@H](C)[C@H]12 [Doripenem Hydrate] | 0.112 ± 0.098 | 0.9984 ± 0.0027 | 0.133 ± 0.078 | 0.226 ± 0.11 |
| C[C@H](NC(=O)Cc1cc(F)cc(F)c1)C(=O)N[C@H](C(=O)OC(C)(C)C)c1ccccc1 | 0.174 ± 0.26 | 0.991 ± 0.016 | 0.137 ± 0.071 | 0.224 ± 0.053 |

Reprinted from the listing for reference:

| Compound | fraction [1] | fraction [2] | fraction of reporter-positive cells with nuclear (HeLa RPS2-YFP reporter) | fraction of reporter-positive cells with nuclear (HeLa RPL29-GFP reporter) |
| --- | --- | --- | --- | --- |
| COC(=O)[C@H]1[C@H]2C[C@@H]3c4[nH]c5cc(OC)ccc5c4CCN3C[C@H]2C[C@@H](OC(=O)c2cc(OC)c(OC)c(OC)c2)[C@@H]1OC [Reserpine] | 0.0701 ± 0.065 | 0.9988 ± 0.0021 | 0.121 ± 0.094 | 0.194 ± 0.019 |
| COC(=O)C1=C(C)NC(C)=C(C(=O)OCCN2CCN(C(c3ccccc3)c3ccccc3)CC2)C1c1cccc([N+](=O)[O-])c1 (centres undefined) [Manidipine (Manyper)] | 0.139 ± 0.2 | 0.99 ± 0.017 | 0.116 ± 0.11 | 0.244 ± 0.076 |

Source: the supplement of paper PMC12542422
